Laboratory results published in publication PMC6179184, “Interaction of the Warsaw breakage syndrome DNA helicase DDX11 with the replication fork-protection factor Timeless promotes sister chromatid cohesion” (PLoS Genetics, 2018).

What was measured:
[1] = molecular target: T1, DDX11-3xFlag KAK mutant (human) (UniProt Q96FC9); assay: co-IP; whole cell extracts of HEK 293T cells transiently expressing DDX11-3xFlag (wild type or mutants), anti-Flag M2 agarose beads, 50 mM Tris-HCl pH 8.0, 150 mM NaCl, 0.25% Triton X-100, 10% glycerol, 2 hr at 4 C, elution with Flag peptide; Western blot of endogenous partners
T1 sequence: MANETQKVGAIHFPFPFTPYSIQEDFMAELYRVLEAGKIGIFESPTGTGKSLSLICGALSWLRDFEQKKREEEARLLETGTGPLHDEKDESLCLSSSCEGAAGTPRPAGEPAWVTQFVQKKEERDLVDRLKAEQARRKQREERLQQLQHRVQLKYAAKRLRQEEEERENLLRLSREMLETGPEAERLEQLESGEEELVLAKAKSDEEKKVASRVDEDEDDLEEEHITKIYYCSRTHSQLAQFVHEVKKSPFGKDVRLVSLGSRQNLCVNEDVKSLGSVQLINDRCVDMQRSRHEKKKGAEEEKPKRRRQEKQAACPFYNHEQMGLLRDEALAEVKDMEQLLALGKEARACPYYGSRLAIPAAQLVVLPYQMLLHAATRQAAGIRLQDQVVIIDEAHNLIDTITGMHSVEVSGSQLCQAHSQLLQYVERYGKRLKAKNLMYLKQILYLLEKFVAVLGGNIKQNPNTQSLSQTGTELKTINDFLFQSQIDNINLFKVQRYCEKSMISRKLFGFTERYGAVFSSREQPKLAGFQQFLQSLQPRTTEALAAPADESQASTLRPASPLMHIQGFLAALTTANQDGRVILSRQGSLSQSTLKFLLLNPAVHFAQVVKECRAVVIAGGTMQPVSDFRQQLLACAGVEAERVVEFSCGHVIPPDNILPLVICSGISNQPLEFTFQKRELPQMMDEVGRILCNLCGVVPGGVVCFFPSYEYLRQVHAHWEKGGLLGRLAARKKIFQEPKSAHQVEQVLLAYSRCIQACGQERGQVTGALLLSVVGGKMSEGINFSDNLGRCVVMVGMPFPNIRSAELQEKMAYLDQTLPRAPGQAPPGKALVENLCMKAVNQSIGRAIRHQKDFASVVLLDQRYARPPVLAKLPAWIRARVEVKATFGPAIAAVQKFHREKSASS

[2] = molecular target: T2, DDX11-3xFlag wild type (human) (UniProt Q96FC9); assay: as above
T2 sequence: T1 sequence with K201E, A202Y, K203E

[3] = molecular target: T3, DDX11-3xFlag K50R mutant (human) (UniProt Q96FC9); assay: as above
T3 sequence: T1 sequence with K50R, K201E, A202Y, K203E

[4] = molecular target: T4, DDX11-3xFlag Q23A mutant (human) (UniProt Q96FC9); assay: as above
T4 sequence: T1 sequence with Q23A, K201E, A202Y, K203E

[5] = molecular target: T5, DDX11-3xFlag KAE mutant (human) (UniProt Q96FC9); assay: as above
T5 sequence: T1 sequence with K203E

[6] = molecular target: T6, endogenous Cdc45 (HeLa nuclear fraction) (human (endogenous in HeLa)) (UniProt O75419); assay: co-IP; nuclear fraction (sonicated, micrococcal nuclease treated) of S phase control (C1) and DDX11-depleted (5-5) HeLa cells; anti-Cdc45 rabbit IgG or control IgG on Protein A Sepharose; 10 mM Hepes-NaOH pH 7.9, 50 mM NaCl, 1 mM DTT, 0.1% Triton X-100, 4 C; Western blot
T6 sequence: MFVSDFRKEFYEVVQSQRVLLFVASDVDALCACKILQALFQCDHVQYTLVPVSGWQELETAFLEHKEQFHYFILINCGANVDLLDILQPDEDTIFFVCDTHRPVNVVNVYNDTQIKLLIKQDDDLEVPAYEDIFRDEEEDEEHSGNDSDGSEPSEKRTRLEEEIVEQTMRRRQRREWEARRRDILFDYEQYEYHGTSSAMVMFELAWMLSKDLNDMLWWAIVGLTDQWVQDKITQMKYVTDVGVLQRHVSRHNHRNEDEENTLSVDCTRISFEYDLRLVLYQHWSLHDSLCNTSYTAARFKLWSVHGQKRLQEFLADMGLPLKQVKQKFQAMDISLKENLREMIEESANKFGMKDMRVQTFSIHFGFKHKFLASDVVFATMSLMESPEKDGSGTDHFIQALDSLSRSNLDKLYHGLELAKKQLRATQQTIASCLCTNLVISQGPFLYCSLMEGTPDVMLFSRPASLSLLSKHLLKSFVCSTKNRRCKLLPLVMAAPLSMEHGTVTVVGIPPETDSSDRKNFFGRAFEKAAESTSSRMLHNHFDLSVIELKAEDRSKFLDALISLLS

Measured: binding

endogenous cohesin (HEK 293T) (human (endogenous in HEK 293T)) (complex)
not listed: [6]
binds: all other assays above

endogenous cohesin (HeLa nuclear fraction) (human (endogenous in HeLa)) (complex)
binds: [6]

Substitutions are numbered along the chain they refer to. Results are given in words; binding and its absence hold for the method and conditions named. In cells and extracts the contact can be indirect. Binding can be weak; no strength is given. For part of these data: Where a sequence is shown, tags or fusion partners need not be part of it.
